Assay results as given in publication PMC10466926.
These are yes or no findings as the source states them, for the method shown. Some binding calls cover weakened binding; strength is not graded here.

By UniProt entry, the sequences of proteins in these tests, tags left out. Where a name states a change or a piece, a line headed by the entry shows the natural chain unless it says otherwise. Residues count along the entry.
UniProt Q931P4, residues 41-860: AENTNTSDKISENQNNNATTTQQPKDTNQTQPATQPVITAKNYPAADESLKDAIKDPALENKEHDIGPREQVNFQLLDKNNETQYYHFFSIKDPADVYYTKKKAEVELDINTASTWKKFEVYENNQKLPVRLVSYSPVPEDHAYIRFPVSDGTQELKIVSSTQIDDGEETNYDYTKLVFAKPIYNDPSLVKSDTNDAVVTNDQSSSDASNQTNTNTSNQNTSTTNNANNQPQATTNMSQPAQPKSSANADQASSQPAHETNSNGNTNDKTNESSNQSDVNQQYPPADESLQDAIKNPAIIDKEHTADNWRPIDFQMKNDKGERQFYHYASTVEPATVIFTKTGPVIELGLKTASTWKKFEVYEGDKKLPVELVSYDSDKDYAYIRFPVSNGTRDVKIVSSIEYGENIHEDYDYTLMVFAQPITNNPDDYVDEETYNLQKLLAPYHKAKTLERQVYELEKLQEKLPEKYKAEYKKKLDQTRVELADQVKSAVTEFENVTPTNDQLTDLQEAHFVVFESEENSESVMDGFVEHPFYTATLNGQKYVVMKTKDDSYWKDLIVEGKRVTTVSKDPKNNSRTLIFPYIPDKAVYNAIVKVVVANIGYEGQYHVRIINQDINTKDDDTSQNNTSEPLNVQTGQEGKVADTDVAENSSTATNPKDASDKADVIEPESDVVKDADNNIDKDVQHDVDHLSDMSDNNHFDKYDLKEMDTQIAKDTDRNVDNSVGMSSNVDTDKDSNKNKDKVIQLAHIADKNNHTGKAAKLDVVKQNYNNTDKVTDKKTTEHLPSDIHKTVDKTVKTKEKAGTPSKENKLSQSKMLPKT
UniProt P69905: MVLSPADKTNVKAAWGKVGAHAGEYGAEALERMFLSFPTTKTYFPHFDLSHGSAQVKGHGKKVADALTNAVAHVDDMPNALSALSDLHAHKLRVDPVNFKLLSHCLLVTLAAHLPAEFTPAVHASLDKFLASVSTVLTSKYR

Biological target: IsdH NEAT1–NEAT3 (full-length IsdH) (S. aureus Mu50) (UniProt Q931P4)
Experiment: SPR; both purified

In the case of “human hemoglobin (methemoglobin) (from UniProt P69905 1-142; P68871 1-147) (complex)”, the binding is reported as “binds”.
